Source: PubChem BioAssay AID624291 (National Center for Advancing Translational Sciences (NCATS), 2012)
Screen size: about 350,000 compounds; about 220 (0.063%) were called active. This list was built around the results that the source calls inconclusive (neither active nor inactive); the mix of calls is not that of the screen. Calls come from the whole dose curve; as a rule, active = well fitted activation curve with a large enough effect; inconclusive = small, poorly fitted or top-dose-only effect; inactive = no such curve, though single readings can be large or run the other way. Where the call is inconclusive, the potency comes from a doubtful curve fit.

test: qHTS for Activators of Integrin-Mediated Alleviation for Muscular Dystrophy; settings: alpha7betagal myoblasts, beta-gal FDG fluorescence, 48 h; activation: at 38.3 µM (top of the series); note: nearly all actives have a fitted effect of over 60% in size;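 for activation: 100% = response of the positive control SU9516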
In short: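 alpha7betagal+/- myoblasts (passage 13, 250/well) treated 48 h at 37C with compounds at 1:260 dilution of DMSO stock. Lysed, then beta-galactosidase activity read as FDG fluorescence (ex 480/em 540) after 30 min, with pre-read for autofluorescence.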
Potency is the fitted concentration of half-maximal effect.

SMILES | Potency | activation
O=C(COc1ccc(S(=O)(=O)N2CCOCC2)cc1)NC1CC1 | inactive | –
CCn1c(SCC(=O)Nc2ccc(OC)cc2)nc2nc3c(cc2c1=O)COC(C)(C)C3 | inconclusive: 3.16 µM [activator, single point] | –
CC(=O)OC(C(=O)Nc1nccs1)c1ccccc1 (stereo unspecified) | inconclusive: 3.16 µM [activator, full curve, poor fit] | –
CC(=O)Nc1ccc2c(c1)C(=O)c1ccc(Cl)cc1-2 | inconclusive: 10 µM [activator, partial curve, poor fit] | –
COc1ccc2[nH]c3c(c2c1)CC(C)NC3=O (stereo unspecified) | inconclusive: 28.2 µM [activator, single point] | –
N#C/C(=C\c1ccc(F)c(Br)c1)C(=O)NC1CC1 | inconclusive: 1 µM [activator, full curve, poor fit] | –
CCOC(=O)c1ccc(N2C(=O)CC(Nc3ccc(O)cc3)C2=O)cc1 (stereo unspecified) | inconclusive: 2.24 µM [activator, single point] | –
CN(C)/C=C/C(=O)c1nn(-c2ccc(F)cc2)ccc1=O | inconclusive: 20 µM [activator, single point] | –
COc1ccccc1C(=O)Nc1ccnn1C1CCN(C(=O)c2ccoc2C)CC1 | inconclusive: 5.01 µM [activator, single point] | –
COc1cc(/C=C2\CCC/C(=C\c3ccc(O)c(OC)c3)C2=O)ccc1O | inactive | –
Cc1cc(Cl)ccc1OCC(=O)Nc1nc(-c2cccs2)cs1 | inconclusive: 5.62 µM [activator, single point] | –
O=C(CCCCCN1C(=O)[C@@H]2Cc3ccccc3CN2C1=O)Nc1ccccc1Cl | inconclusive: 14.1 µM [activator, single point] | –
CCc1cc(CNC(=O)c2ccc(OC3CCN(C(C)=O)CC3)c(OC)c2)on1 | inconclusive: 3.16 µM [activator, single point] | –
C=CCN1C(=O)[C@]2(c3ccccc31)C1CCCC=C1C(C#N)=C(N)C2(C#N)C#N (stereo partly specified) | inactive | –
COc1ccc(CC(=O)NCC(=O)NC(Cc2ccccc2)C(=O)O)cc1 (stereo unspecified) | inconclusive: 28.2 µM [activator, single point] | –
O=C(Nc1ccccc1C(=O)NCCCN1CCOCC1)c1ccc(F)cc1 | inconclusive: 1.41 µM [activator, partial curve, poor fit] | –
CCCn1nc(NC(=O)C(C)(C)C)c2cc3cc(OC)ccc3nc21 | inconclusive: 10 µM [activator, partial curve, poor fit] | –
Cc1ccc(S(=O)(=O)CCc2nnc(NC(=O)c3ccccn3)s2)cc1 | inactive | –
Cc1ccc(Cl)cc1NC(=O)C(=O)N1CCCCC1 | inactive | –
CC1(N(O)/C=C2\C=CC=CC2=O)CCCCC1=O (stereo unspecified) | inconclusive: 5.01 µM [activator, partial curve, poor fit] | –
COc1ccc2nc(NC(=O)c3ccccc3O)sc2c1 | inactive | –
Cc1ccc(S(=O)(=O)N/N=C(\c2ccccc2)C2CC2)cc1 | inconclusive: 11.2 µM [activator, single point] | –
O=C(NN=C1CCCC1)C1COc2ccccc2O1 (stereo unspecified) | inconclusive: 2.51 µM [activator, single point] | –
COc1ccccc1NC(=O)CNC(=O)c1ccc(Br)o1 | inconclusive: 0.501 µM [activator, full curve, poor fit] | –

Looked up above.
Entry for CCc1cc(CNC(=O)c2ccc(OC3CCN(C(C)=O)CC3)c(OC)c2)on1 under Potency: inconclusive: 3.16 µM [activator, single point]
Entry for CC(=O)OC(C(=O)Nc1nccs1)c1ccccc1 (stereo unspecified) under Potency: inconclusive: 3.16 µM [activator, full curve, poor fit]

More structures

SMILES | Potency | activation
COCc1cc(C)nc(OCC(=O)N/N=C/c2ccc(O)cc2O)c1C#N | inconclusive: 5.01 µM [activator, single point] | –
COc1ccc(N/C=C(\C#N)S(=O)(=O)c2ccc(Cl)cc2)c(OC)c1 | inactive | –
COC(=O)C1N[C@@H]([C@@H](NC(=O)COc2ccccc2)C(=O)NCc2ccsc2)SC1(C)C (stereo partly specified) | inactive | –
CNc1c(N=Cc2cccnc2)c(=O)n(C)c(=O)n1C | inconclusive: 14.1 µM [activator, single point] | –
CC(C)(C)OC(=O)[C@H](Cc1ccccc1)NC(=O)c1nc[nH]c1C(=O)N1CCc2ccccc2C1 | inactive | –
CC(C)Nc1nc(N)c(C(=O)C23CC4CC(CC(C4)C2)C3)s1 | inactive | –
COc1ccc(S(=O)(=O)N(C)CC(=O)NCCN2CCOCC2)cc1 | inconclusive: 10 µM [activator, single point] | –
O=C(OCc1ccccc1C(F)(F)F)c1cc([N+](=O)[O-])ccc1N1CCOCC1 | inconclusive: 28.2 µM [activator, single point] | –
COc1ccc(-n2nc3c(c2NC(=O)C2CC2)CS(=O)(=O)C3)cc1 | inconclusive: 5.01 µM [activator, single point] | –
Cc1ccc2c(c1C)OC(=O)CC2c1ccccc1 (stereo unspecified) | inconclusive: 5.62 µM [activator, partial curve, poor fit] | –
Cc1ccccc1NC(=O)Nc1ccccc1N1CCCCC1 | inconclusive: 5.01 µM [activator, single point] | –
CCN1CCN(CC(=O)Nc2ccc(Cl)c(S(=O)(=O)N(C)C)c2)CC1 | inactive | –
CCOc1ccc(NC(=O)[C@H](Cc2ccccc2)NC(=O)C2CCNCC2)cc1 | inconclusive: 28.2 µM [activator, partial curve, poor fit] | –
CCN(CC(=O)Nc1ccccc1OC)C(=O)CN1C(=O)NC(C)(c2ccc3ccccc3c2)C1=O (stereo unspecified) | inconclusive: 2 µM [activator, single point] | –
CC(=O)Oc1c(Cl)cc(Cl)cc1/C=C/c1ccc2ccccc2n1 | inconclusive: 3.55 µM [activator, partial curve, poor fit] | –
COc1ccc(C2SCC(=O)N2c2nc3ccccc3s2)cc1 (stereo unspecified) | inactive | –
COc1ccccc1/C=C/C(=O)Nc1cccc(C(C)=O)c1 | inconclusive: 28.2 µM [activator, single point] | –
CN(CC(=O)O)S(=O)(=O)c1ccc2[nH]c(=O)c(=O)[nH]c2c1 | inconclusive: 11.2 µM [activator, single point] | –
COc1ccc(NC(=S)NCCCN2CCCC2)cc1Cl | inactive | –
CN1CCN(CCc2cn3ncc(C#N)c3nc2-c2ccc(F)cc2)CC1 | inconclusive: 1.78 µM [activator, partial curve, poor fit] | –
CCc1ccc(NC(=O)c2cc(-c3ccc4c(c3)OCO4)on2)cc1 | inconclusive: 11.2 µM [activator, single point] | –
O=c1[nH]c2ccc(S(=O)(=O)N3CCCCC3)cc2[nH]1 | inactive | –
O=C(NNC1CC(=O)N(c2ccc(Cl)cc2)C1=O)c1ccccn1 (stereo unspecified) | inconclusive: 7.08 µM [activator, partial curve, poor fit] | –
S=c1[nH]nc(COc2ccccc2)n1/N=C/c1cccs1 | inactive | –

Record cards (already shown):
COc1ccccc1NC(=O)CNC(=O)c1ccc(Br)o1 as listed: Potency: inconclusive: 0.501 µM [activator, full curve, poor fit]
CC(C)(C)OC(=O)[C@H](Cc1ccccc1)NC(=O)c1nc[nH]c1C(=O)N1CCc2ccccc2C1 as listed: Potency: inactive

The list goes on:

SMILES | Potency | activation
CCOC(=O)N(C)S(=O)(=O)c1ccccc1[N+](=O)[O-] | inconclusive: 3.16 µM [activator, single point] | –
Cn1cccc1/C=N\NC(=O)C1COc2ccc(C(C)(C)C)cc2O1 (stereo unspecified) | inconclusive: 5.01 µM [activator, single point] | –
Cc1nn(Cc2noc(C(=O)NC3CCC(C)CC3)n2)c(C)c1Br (stereo unspecified) | inactive | –
Cc1cc(=O)n2nc(N3CCCC(C(=O)NCc4ccccc4Br)C3)sc2n1 (stereo unspecified) | inconclusive: 12.6 µM [activator, partial curve, poor fit] | –
CCN(CC)c1ccc(C(=O)N2CCN(Cc3ccccc3)CC2)cc1 | inconclusive: 28.2 µM [activator, single point] | –
Cc1noc(C)c1COc1ccc(C(=O)O)cc1 | inactive | –
O=C(COC(=O)c1ccc(S(=O)(=O)C(F)F)cc1)Nc1ccccc1C(=O)NC1CC1 | inconclusive: 28.2 µM [activator, single point] | –
CC(=O)Nc1ccc(NC(=O)C(C)Oc2ccccc2C(=O)NCc2ccccc2)cc1 (stereo unspecified) | inconclusive: 12.6 µM [activator, single point] | –
O=C(Cn1c(=O)n(-c2ccc(F)cc2)c(=O)c2sccc21)NC1CCCCC1 | inconclusive: 11.2 µM [activator, single point] | –
O=C(c1cc(-c2ccccn2)nc2c(Cl)cccc12)N1CCN(S(=O)(=O)c2ccccc2)CC1 | inactive | –
CCC(=O)Nc1ccc2c(c1)ncn2CCc1ccccc1 | inconclusive: 2.82 µM [activator, single point] | –
Cc1cc(NC(=O)CSCC(=O)Nc2ccc(Cl)c(C(F)(F)F)c2)no1 | inconclusive: 17.8 µM [activator, partial curve, poor fit] | –
COc1cc(NC(=S)Nc2cccc(Cl)c2Cl)c(OC)cc1Cl | inactive | –
Cc1ccc(S(=O)(=O)N2CC=C(C(=O)NC3CC3)CC2)cc1 | inconclusive: 2.82 µM [activator, single point] | –
O=C(Cn1cnc2sc(-c3ccccc3)cc2c1=O)NCCc1ccccc1 | inactive | –
O=C(c1cc(-c2ccc3c(c2)OCO3)on1)N1CCN(c2ccc(F)cc2)CC1 | inactive | –
CC(C)(C)NC(=O)c1ccc2nccnc2c1 | inactive | –
CCOc1ccc(-c2nnc(N3CCOCC3)c3ccccc23)cc1 | inconclusive: 4.47 µM [activator, full curve, poor fit] | –
CC1CC(C)CN(c2nc(N(C)c3ccccc3)nc(N)c2[N+](=O)[O-])C1 (stereo unspecified) | inactive | –
CCC/C=N/NC(=O)c1ccc(F)cc1 | inconclusive: 12.6 µM [activator, single point] | –
CCCCN(CC)CCNC(=O)c1cc2c(-c3ccccc3F)nn(C)c2s1 | inactive | –
OC(CCN1CCC2CCC(C2)C1)c1ccc(Br)cc1 (stereo unspecified) | – | inconclusive: -49.6% [activator]
O=c1[nH]c2ccc(Cl)cc2c(-c2ccccc2)c1[N+](=O)[O-] | inactive | –
